Measured values: publication PMC10733359
No constants are given. Whether binding was seen depends on the method and setting. In cells and extracts the contact can be indirect. A yes stands for co-enrichment or nearness to the bait. Other partners may have been found. Each block holds one molecule with its values, some of them ahead of it.

The chains behind the UniProt entries cited, without tags or fusion partners.
UniProt Q99104: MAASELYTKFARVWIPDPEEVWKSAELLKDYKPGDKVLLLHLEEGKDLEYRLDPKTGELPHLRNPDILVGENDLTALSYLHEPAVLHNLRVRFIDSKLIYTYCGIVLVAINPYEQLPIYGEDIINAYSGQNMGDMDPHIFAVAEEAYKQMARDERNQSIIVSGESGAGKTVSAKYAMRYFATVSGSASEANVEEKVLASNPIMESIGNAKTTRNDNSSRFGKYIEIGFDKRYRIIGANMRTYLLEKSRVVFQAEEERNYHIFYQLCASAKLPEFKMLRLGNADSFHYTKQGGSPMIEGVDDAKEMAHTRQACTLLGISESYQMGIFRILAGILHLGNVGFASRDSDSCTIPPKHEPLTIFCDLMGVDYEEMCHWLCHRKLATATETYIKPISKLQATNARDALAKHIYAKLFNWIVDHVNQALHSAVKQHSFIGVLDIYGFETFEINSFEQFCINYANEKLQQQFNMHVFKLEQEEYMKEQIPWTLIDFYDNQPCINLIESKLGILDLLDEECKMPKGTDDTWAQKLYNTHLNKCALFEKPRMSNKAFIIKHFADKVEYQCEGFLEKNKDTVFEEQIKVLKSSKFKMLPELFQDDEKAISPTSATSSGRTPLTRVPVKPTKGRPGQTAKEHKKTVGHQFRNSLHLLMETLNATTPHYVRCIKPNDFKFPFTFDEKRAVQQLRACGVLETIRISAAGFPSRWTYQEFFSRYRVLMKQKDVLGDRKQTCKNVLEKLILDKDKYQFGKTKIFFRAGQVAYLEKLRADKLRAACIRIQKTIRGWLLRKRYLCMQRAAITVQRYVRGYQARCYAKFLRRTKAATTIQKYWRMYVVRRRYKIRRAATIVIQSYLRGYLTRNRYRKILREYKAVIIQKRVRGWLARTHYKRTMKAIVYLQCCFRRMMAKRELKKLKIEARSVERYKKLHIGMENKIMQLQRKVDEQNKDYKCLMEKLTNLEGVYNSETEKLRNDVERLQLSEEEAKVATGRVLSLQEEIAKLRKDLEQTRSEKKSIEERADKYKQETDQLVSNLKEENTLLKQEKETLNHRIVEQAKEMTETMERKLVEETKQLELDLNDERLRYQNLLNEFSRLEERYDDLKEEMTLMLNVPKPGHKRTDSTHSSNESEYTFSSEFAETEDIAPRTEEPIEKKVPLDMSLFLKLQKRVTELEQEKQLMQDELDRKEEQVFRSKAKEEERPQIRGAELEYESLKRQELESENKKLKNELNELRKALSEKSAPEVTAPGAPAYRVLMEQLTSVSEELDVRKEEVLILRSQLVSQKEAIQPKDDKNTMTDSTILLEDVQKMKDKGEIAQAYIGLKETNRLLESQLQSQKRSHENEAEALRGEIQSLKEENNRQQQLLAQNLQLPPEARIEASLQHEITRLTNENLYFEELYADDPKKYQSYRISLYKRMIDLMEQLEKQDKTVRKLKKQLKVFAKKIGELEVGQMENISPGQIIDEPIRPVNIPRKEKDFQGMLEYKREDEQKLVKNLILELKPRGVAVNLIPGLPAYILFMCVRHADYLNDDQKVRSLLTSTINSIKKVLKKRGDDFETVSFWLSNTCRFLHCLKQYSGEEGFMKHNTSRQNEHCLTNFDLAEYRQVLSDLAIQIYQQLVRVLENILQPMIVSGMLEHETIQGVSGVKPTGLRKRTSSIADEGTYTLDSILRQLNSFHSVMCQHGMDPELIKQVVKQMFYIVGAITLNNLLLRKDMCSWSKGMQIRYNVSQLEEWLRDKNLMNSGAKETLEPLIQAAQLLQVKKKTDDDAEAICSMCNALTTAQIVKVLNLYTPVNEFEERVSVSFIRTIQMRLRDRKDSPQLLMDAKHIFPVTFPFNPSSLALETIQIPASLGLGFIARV
UniProt O88569: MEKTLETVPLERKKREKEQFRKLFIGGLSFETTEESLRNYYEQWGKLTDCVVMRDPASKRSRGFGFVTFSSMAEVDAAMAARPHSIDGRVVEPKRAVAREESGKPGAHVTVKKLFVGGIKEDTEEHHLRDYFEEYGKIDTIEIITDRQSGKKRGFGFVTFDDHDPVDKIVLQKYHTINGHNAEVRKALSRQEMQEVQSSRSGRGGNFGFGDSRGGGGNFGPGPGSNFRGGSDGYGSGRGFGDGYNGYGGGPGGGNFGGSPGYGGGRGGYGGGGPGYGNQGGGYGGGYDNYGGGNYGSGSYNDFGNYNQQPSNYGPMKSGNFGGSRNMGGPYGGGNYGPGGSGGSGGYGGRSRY
UniProt P16220: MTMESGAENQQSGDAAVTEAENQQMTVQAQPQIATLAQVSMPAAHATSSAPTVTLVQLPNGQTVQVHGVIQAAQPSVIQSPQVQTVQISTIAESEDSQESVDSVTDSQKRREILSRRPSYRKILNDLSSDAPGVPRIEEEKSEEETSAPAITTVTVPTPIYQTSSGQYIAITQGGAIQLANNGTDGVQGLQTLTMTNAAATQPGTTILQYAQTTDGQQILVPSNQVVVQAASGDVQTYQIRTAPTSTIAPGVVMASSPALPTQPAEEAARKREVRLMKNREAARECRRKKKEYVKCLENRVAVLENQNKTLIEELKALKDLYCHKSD
UniProt Q93009: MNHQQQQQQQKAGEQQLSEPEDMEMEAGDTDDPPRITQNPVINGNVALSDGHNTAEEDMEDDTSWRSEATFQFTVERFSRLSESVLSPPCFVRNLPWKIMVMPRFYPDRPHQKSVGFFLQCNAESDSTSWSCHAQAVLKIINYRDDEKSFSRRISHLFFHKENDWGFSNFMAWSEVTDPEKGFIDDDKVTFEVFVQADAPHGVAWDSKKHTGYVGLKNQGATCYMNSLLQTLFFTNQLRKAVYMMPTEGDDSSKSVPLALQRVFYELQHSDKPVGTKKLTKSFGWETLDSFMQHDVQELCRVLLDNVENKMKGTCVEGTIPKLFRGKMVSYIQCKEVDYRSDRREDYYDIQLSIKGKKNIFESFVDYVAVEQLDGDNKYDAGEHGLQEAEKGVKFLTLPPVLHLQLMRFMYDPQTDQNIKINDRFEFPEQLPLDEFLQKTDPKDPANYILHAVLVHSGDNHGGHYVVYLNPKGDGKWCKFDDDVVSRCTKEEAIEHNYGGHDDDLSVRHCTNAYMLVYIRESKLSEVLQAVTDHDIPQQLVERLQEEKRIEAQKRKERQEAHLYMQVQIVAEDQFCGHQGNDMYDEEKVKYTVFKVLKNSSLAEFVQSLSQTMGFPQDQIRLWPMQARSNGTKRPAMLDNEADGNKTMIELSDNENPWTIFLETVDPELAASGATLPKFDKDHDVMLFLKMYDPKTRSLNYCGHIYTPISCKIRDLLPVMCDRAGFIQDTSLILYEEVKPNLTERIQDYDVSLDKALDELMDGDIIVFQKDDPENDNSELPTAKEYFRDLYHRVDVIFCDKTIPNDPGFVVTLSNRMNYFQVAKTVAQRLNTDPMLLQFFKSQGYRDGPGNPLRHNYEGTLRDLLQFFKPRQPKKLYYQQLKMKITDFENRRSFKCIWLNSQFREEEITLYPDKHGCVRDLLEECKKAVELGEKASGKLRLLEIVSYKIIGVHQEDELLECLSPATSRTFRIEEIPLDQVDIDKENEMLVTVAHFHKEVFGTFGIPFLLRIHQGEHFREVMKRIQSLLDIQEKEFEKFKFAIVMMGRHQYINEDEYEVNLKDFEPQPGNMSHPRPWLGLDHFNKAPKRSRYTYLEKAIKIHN
UniProt Q6R891: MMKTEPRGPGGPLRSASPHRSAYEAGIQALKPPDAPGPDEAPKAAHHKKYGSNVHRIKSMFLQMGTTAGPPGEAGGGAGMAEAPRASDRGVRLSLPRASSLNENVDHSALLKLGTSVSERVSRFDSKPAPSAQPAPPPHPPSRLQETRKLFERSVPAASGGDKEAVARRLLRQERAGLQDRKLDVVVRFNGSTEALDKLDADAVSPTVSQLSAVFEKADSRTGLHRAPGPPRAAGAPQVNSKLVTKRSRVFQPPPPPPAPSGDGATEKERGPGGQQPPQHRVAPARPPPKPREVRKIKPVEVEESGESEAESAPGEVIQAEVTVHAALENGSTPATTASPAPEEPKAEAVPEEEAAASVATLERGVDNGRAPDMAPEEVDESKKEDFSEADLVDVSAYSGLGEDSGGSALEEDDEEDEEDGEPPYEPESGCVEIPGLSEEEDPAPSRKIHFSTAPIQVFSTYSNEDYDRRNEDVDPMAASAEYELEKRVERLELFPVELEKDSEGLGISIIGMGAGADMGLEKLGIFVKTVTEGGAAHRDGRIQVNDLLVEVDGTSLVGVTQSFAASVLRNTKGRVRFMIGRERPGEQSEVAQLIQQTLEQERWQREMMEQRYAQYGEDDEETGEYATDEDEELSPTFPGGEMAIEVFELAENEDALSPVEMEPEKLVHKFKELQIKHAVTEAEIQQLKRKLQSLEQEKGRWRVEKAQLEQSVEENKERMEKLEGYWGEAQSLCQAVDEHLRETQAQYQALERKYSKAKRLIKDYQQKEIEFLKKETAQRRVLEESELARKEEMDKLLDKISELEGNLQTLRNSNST

Experiments:
[1] = biological target: T1, melanoma-associated antigen D1 (Maged1), mouse (mouse (endogenous in thalamus)) (UniProt Q9QYH6); test: affinity purification with mass spectrometry; anti-Maged1 antibody on Dynabeads Protein A, 500 ug thalamus lysate supernatant (50 mM Tris HCl pH 8.0, 150 mM NaCl, 1 mM EDTA, 0.5 % NP-40), overnight 4 °C; saline- and cocaine-treated control mice and cocaine-treated Maged1-cKO mice; LC-MS/MS
T1 sequence: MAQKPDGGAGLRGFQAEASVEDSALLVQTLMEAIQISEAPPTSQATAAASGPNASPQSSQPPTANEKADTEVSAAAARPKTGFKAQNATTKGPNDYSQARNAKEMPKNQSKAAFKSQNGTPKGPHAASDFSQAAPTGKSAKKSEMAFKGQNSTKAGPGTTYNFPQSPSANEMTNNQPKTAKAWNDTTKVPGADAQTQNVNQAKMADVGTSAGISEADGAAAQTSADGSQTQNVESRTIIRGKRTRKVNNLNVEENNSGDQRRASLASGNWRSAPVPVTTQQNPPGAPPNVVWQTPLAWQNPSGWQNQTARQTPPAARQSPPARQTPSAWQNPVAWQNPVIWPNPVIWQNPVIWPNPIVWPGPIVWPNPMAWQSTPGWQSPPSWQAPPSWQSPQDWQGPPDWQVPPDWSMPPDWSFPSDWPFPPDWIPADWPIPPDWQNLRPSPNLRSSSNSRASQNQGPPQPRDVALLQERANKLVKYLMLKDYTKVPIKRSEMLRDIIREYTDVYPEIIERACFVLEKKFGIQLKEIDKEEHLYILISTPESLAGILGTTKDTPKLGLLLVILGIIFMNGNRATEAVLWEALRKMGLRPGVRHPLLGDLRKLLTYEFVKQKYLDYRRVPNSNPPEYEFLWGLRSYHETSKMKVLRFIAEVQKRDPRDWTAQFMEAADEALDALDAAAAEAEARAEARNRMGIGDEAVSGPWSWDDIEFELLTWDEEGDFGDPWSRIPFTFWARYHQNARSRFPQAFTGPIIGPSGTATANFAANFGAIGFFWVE

[2] = biological target: T2, MAGED1, human (human (endogenous in HEK293T and SH-SY5Y)) (UniProt Q9Y5V3); test: affinity purification with mass spectrometry; IP of endogenous MAGED1 from SH-SY5Y lysate (50 mM Tris-HCl pH 7.5, 150 mM NaCl, 1% Triton X-100), protein A agarose, overnight 4 °C; control: rabbit IgG IP; TMT LC-MS/MS
T2 sequence: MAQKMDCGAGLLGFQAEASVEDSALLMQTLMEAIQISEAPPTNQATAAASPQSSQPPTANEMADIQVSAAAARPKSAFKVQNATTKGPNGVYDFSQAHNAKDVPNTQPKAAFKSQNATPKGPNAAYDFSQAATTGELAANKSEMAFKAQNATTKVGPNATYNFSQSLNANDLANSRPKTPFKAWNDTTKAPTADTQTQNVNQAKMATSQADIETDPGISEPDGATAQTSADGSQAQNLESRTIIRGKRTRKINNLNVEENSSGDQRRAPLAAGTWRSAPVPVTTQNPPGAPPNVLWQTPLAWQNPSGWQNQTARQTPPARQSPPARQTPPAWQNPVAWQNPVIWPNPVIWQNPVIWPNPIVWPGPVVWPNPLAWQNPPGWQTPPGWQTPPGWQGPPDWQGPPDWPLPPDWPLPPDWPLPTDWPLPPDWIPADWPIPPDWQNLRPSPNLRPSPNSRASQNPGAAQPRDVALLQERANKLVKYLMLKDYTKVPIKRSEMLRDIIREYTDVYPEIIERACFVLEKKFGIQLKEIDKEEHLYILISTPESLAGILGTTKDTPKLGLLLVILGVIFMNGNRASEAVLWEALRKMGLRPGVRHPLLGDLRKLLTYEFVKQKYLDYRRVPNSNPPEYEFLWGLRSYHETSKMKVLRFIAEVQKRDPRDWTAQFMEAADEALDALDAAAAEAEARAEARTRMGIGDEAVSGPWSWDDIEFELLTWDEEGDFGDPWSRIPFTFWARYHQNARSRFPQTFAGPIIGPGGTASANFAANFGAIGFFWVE

[3] = biological target: T2, MAGED1, human (human (endogenous in HEK293T and SH-SY5Y)); test: affinity purification with mass spectrometry; IP of endogenous MAGED1 from HEK293T lysate (50 mM Tris-HCl pH 7.5, 150 mM NaCl, 1% Triton X-100), protein A agarose, overnight 4 °C; control: MAGED1 KO HEK293T (C1); TMT LC-MS/MS

binding [1]: binds
Molecule: Myo5a, mouse (from UniProt Q99104 1-1853)

binding [1]: binds
Molecule: hnRNPA2/B1, mouse (from UniProt O88569 1-353)

binding [2]: binds
Molecule: CREB, human (from UniProt P16220 1-327)

binding [2]: binds
binding [3]: binds
Molecule: USP7, human (from UniProt Q93009 1-1102) (enzyme)

binding [1]: binds
Molecule: Neb2, mouse (from UniProt Q6R891 1-817)

binding [1]: binds
Molecule: Neb1, mouse

binding [1]: binds
B1: Praja1, mouse (protein, UniProt O55176 1-578)
chain: MSHQERIASQRRTTAEVPMHRSTANQSKRSRSPFASTRRRWDDSESSGASLAVESEDYSRYPPREYRASGSRRGLAYGHIDTVVARDSEEEGAGPVDRLPVRGKAGKFKDDPEKGARSSRFTSVNHDAKEECGKVESPPAARCSARRAELSKQNGSSASQISSAEGRAAAKGNNSLERERQNLPARPSRAPVSICGGGENTPKSAEEPVVRPKVRNVATPNCMKPKVFFDTDDDDDVPHSTSRWRDAADAEEAHAEGLARRGRGEAASSSEPRYAEDQDARSEQAKADKVPRRRRTMADPDFWAYTDDYYRYYEEDSDSDKEWMAALRRKYRSREQPQSSSGESWELLPGKEELERQQAGAGSLASAGSNGSGYPEEVQDPSLQEEEQASLEEGEIPWLRYNENESSSEGDNESTHELIQPGMFMLDGNNNLEDDSSVSEDLEVDWSLFDGFADGLGVAEAISYVDPQFLTYMALEERLAQAMETALAHLESLAVDVEVANPPASKESIDALPEILVTEDHGAVGQEMCCPICCSEYVKGEVATELPCHHYFHKPCVSIWLQKSGTCPVCRCMFPPPL

binding [2]: binds
B2: MYSM1, human (enzyme, UniProt Q5VVJ2 1-828)
chain: MAAEEADVDIEGDVVAAAGAQPGSGENTASVLQKDHYLDSSWRTENGLIPWTLDNTISEENRAVIEKMLLEEEYYLSKKSQPEKVWLDQKEDDKKYMKSLQKTAKIMVHSPTKPASYSVKWTIEEKELFEQGLAKFGRRWTKISKLIGSRTVLQVKSYARQYFKNKVKCGLDKETPNQKTGHNLQVKNEDKGTKAWTPSCLRGRADPNLNAVKIEKLSDDEEVDITDEVDELSSQTPQKNSSSDLLLDFPNSKMHETNQGEFITSDSQEALFSKSSRGCLQNEKQDETLSSSEITLWTEKQSNGDKKSIELNDQKFNELIKNCNKHDGRGIIVDARQLPSPEPCEIQKNLNDNEMLFHSCQMVEESHEEEELKPPEQEIEIDRNIIQEEEKQAIPEFFEGRQAKTPERYLKIRNYILDQWEICKPKYLNKTSVRPGLKNCGDVNCIGRIHTYLELIGAINFGCEQAVYNRPQTVDKVRIRDRKDAVEAYQLAQRLQSMRTRRRRVRDPWGNWCDAKDLEGQTFEHLSAEELAKRREEEKGRPVKSLKVPRPTKSSFDPFQLIPCNFFSEEKQEPFQVKVASEALLIMDLHAHVSMAEVIGLLGGRYSEVDKVVEVCAAEPCNSLSTGLQCEMDPVSQTQASETLAVRGFSVIGWYHSHPAFDPNPSLRDIDTQAKYQSYFSRGGAKFIGMIVSPYNRNNPLPYSQITCLVISEEISPDGSYRLPYKFEVQQMLEEPQWGLVFEKTRWIIEKYRLSHSSVPMDKIFRRDSDLTCLQKLLECMRKTLSKVTNCFMAEEFLTEIENLFLSNYKSNQENGVTEENCTKELLM

binding [1]: binds
B3: Dbn1, mouse (protein, UniProt Q9QXS6 1-706)
chain: MAGVSFSGHRLELLAAYEEVIREESAADWALYTYEDGSDDLKLAASGEGGLQELSGHFENQKVMYGFCSVKDSQAALPKYVLINWVGEDVPDARKCACASHVAKVAEFFQGVDVIVNASSVEDIDAGAIGQRLSNGLARLSSPVLHRLRLREDENAEPVGTTYQKTDAAVEMKRINREQFWEQAKKEEELRKEEERKKALDARLRFEQERMEQERQEQEERERRYREREQQIEEHRRKQQSLEAEEAKRRLKEQSIFGDQRDEEEESQMKKSESEVEEAAAIIAQRPDNPREFFRQQERVASASGGSCDAPAPAPFNHRPGRPYCPFIKASDSGPSSSSSSSSSPPRTPFPYITCHRTPNLSSSLPCSHLDSHRRMAPTPIPTRSPSDSSTASTPIAEQIERALDEVTSSQPPPPPPPPPPTQEAQETTPSLDEELSKEAKVTAAPEVWAGCAAEPPQAQEPPLLQSSPLEDSMCTESPEQAALAAPAEPAASVTSVADVHAADTIETTTATTDTTIANNVTPAAASLIDLWPGNGEEASTLQAEPRVPTPPSGAEASLAEVPLLNEAAQEPLPPVGEGCANLLNFDELPEPPATFCDPEEEVGETLAASQVLTMPSALEEVDQVLEQELEPEPHLLTNGETTQKEGTQASEGYFSQSQEEEFAQSEEPCAKVPPPVFYNKPPEIDITCWDADPVPEEEEGFEGGD
